{"sequences": {"note": "Protein sequences, listed by entry. Tags and fused reporters are not part of them. Residues count along the entry.", "UniProt P19111, 20-533": "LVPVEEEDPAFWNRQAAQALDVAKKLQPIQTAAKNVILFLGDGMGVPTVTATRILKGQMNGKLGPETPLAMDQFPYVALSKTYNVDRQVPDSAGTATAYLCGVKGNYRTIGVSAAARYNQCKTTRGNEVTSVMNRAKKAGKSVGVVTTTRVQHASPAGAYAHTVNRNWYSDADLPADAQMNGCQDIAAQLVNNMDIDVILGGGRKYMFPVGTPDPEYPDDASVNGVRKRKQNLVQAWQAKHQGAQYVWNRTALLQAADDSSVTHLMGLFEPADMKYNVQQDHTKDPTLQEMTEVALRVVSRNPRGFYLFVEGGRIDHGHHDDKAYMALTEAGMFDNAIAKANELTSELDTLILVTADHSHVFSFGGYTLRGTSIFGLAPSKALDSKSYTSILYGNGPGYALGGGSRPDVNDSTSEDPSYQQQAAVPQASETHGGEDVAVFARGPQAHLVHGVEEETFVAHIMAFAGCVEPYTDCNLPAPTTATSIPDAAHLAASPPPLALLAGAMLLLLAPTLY"}, "source": "paper PMC9925730", "about": "“Controlled sequential in situ self-assembly and disassembly of a fluorogenic cisplatin prodrug for cancer theranostics” (Nature Communications, 2023)", "molecular_target": "T1, ALP (Bos taurus, UniProt P19111)", "T1 construct": "Alkaline phosphatase from bovine; purchased Sigma-Aldrich; host or cells: bovine intestinal mucosa (tissue-derived)", "assay": "Dephosphorylated efficacy of P-CyPt towards varying concentrations of ALP (NIR fluorescence)", "type": "biochemical", "note": "“And” between values parts separate entries of the source, which are not always exact repeats. Equal entries are not always repeated. Further values from the same series stand in other lists.", "data": [{"smiles": "CC1(C)C(/C=C/C2=C3Oc4cc(OP(=O)(O)O)c(Cl)cc4C=C3CCC2)=[N+](CCCNC(=O)[C@@H](Cc2ccccc2)NC(=O)[C@@H](Cc2ccccc2)NC(=O)CCC(=O)[O][Pt]([NH2])([NH2])([OH])([Cl])[Cl])c2ccccc21", "note": "[P-CyPt]", "values": [{"measurement": "Normalized FL intensity", "setting": "ALP 5 U/L, 0 min, mean of 3 samples", "value": 0.9797}, {"measurement": "Normalized FL intensity", "setting": "ALP 5 U/L, 0 min, single samples", "value": "0.9826 and 0.9217 and 1.035"}, {"measurement": "Normalized FL intensity", "setting": "ALP 5 U/L, 2 min, mean of 3 samples", "value": 1.08}, {"measurement": "Normalized FL intensity", "setting": "ALP 5 U/L, 2 min, single samples", "value": "1.07 and 1.1"}, {"measurement": "Normalized FL intensity", "setting": "ALP 5 U/L, 4 min, mean of 3 samples", "value": 1.184}, {"measurement": "Normalized FL intensity", "setting": "ALP 5 U/L, 4 min, single samples", "value": "1.152 and 1.183 and 1.217"}, {"measurement": "Normalized FL intensity", "setting": "ALP 5 U/L, 6 min, mean of 3 samples", "value": 1.386}, {"measurement": "Normalized FL intensity", "setting": "ALP 5 U/L, 6 min, single samples", "value": "1.387 and 1.352 and 1.417"}, {"measurement": "Normalized FL intensity", "setting": "ALP 5 U/L, 8 min, mean of 3 samples", "value": 1.587}, {"measurement": "Normalized FL intensity", "setting": "ALP 5 U/L, 8 min, single samples", "value": "1.483 and 1.6 and 1.678"}, {"measurement": "Normalized FL intensity", "setting": "ALP 5 U/L, 16 min, mean of 3 samples", "value": 1.958}, {"measurement": "Normalized FL intensity", "setting": "ALP 5 U/L, 16 min, single samples", "value": "1.9087 and 1.952 and 2.013"}, {"measurement": "Normalized FL intensity", "setting": "ALP 5 U/L, 18 min, mean of 3 samples", "value": 2.062}, {"measurement": "Normalized FL intensity", "setting": "ALP 5 U/L, 18 min, single samples", "value": "1.9913 and 2.074 and 2.122"}, {"measurement": "Normalized FL intensity", "setting": "ALP 5 U/L, 20 min, mean of 3 samples", "value": 2.162}, {"measurement": "Normalized FL intensity", "setting": "ALP 5 U/L, 20 min, single samples", "value": "2.07 and 2.157 and 2.261"}, {"measurement": "Normalized FL intensity", "setting": "ALP 5 U/L, 22 min, mean of 3 samples", "value": 2.455}, {"measurement": "Normalized FL intensity", "setting": "ALP 5 U/L, 22 min, single samples", "value": "2.383 and 2.422 and 2.561"}, {"measurement": "Normalized FL intensity", "setting": "ALP 5 U/L, 24 min, mean of 3 samples", "value": 2.539}, {"measurement": "Normalized FL intensity", "setting": "ALP 5 U/L, 24 min, single samples", "value": "2.474 and 2.5 and 2.643"}, {"measurement": "Normalized FL intensity", "setting": "ALP 5 U/L, 26 min, mean of 3 samples", "value": 2.628}, {"measurement": "Normalized FL intensity", "setting": "ALP 5 U/L, 26 min, single samples", "value": "2.57 and 2.626 and 2.687"}, {"measurement": "Normalized FL intensity", "setting": "ALP 5 U/L, 28 min, mean of 3 samples", "value": 2.6942}, {"measurement": "Normalized FL intensity", "setting": "ALP 5 U/L, 28 min, single samples", "value": "2.678 and 2.687 and 2.717"}, {"measurement": "Normalized FL intensity", "setting": "ALP 5 U/L, 30 min, mean of 3 samples", "value": 2.768}, {"measurement": "Normalized FL intensity", "setting": "ALP 5 U/L, 30 min, single samples", "value": "2.722 and 2.77E+00 and 2.81E+00"}, {"measurement": "Normalized FL intensity", "setting": "ALP 10 U/L, 0 min, mean of 3 samples", "value": 0.929}, {"measurement": "Normalized FL intensity", "setting": "ALP 10 U/L, 0 min, single samples", "value": "0.8957 and 0.9087 and 0.9826"}, {"measurement": "Normalized FL intensity", "setting": "ALP 10 U/L, 2 min, mean of 3 samples", "value": 1.1913}, {"measurement": "Normalized FL intensity", "setting": "ALP 10 U/L, 2 min, single samples", "value": "1.17 and 1.196 and 1.2087"}, {"measurement": "Normalized FL intensity", "setting": "ALP 10 U/L, 4 min, mean of 3 samples", "value": 1.416}, {"measurement": "Normalized FL intensity", "setting": "ALP 10 U/L, 4 min, single samples", "value": "1.396 and 1.413 and 1.439"}, {"measurement": "Normalized FL intensity", "setting": "ALP 10 U/L, 6 min, mean of 3 samples", "value": 1.662}, {"measurement": "Normalized FL intensity", "setting": "ALP 10 U/L, 6 min, single samples", "value": "1.63 and 1.652 and 1.704"}, {"measurement": "Normalized FL intensity", "setting": "ALP 10 U/L, 8 min, mean of 3 samples", "value": 1.913}, {"measurement": "Normalized FL intensity", "setting": "ALP 10 U/L, 8 min, single samples", "value": "1.822 and 1.922 and 1.996"}, {"measurement": "Normalized FL intensity", "setting": "ALP 10 U/L, 18 min, mean of 3 samples", "value": 3.077}, {"measurement": "Normalized FL intensity", "setting": "ALP 10 U/L, 18 min, single samples", "value": "2.978 and 3.126"}, {"measurement": "Normalized FL intensity", "setting": "ALP 10 U/L, 20 min, mean of 3 samples", "value": 3.322}, {"measurement": "Normalized FL intensity", "setting": "ALP 10 U/L, 20 min, single samples", "value": "3.152 and 3.426 and 3.387"}, {"measurement": "Normalized FL intensity", "setting": "ALP 10 U/L, 22 min, mean of 3 samples", "value": 3.57}, {"measurement": "Normalized FL intensity", "setting": "ALP 10 U/L, 22 min, single samples", "value": "3.417 and 3.657 and 3.635"}, {"measurement": "Normalized FL intensity", "setting": "ALP 10 U/L, 24 min, mean of 3 samples", "value": 3.865}, {"measurement": "Normalized FL intensity", "setting": "ALP 10 U/L, 24 min, single samples", "value": "3.726 and 3.904 and 3.965"}, {"measurement": "Normalized FL intensity", "setting": "ALP 10 U/L, 26 min, mean of 3 samples", "value": 4.146}, {"measurement": "Normalized FL intensity", "setting": "ALP 10 U/L, 26 min, single samples", "value": "4.065 and 4.13 and 4.243"}, {"measurement": "Normalized FL intensity", "setting": "ALP 10 U/L, 28 min, mean of 3 samples", "value": 4.4}, {"measurement": "Normalized FL intensity", "setting": "ALP 10 U/L, 28 min, single samples", "value": "4.326 and 4.3913 and 4.483"}, {"measurement": "Normalized FL intensity", "setting": "ALP 10 U/L, 30 min, mean of 3 samples", "value": 4.643}, {"measurement": "Normalized FL intensity", "setting": "ALP 10 U/L, 30 min, single samples", "value": "4.543 and 4.648 and 4.739"}, {"measurement": "Normalized FL intensity", "setting": "ALP 20 U/L, 0 min, mean of 3 samples", "value": 0.9536}, {"measurement": "Normalized FL intensity", "setting": "ALP 20 U/L, 0 min, single samples", "value": "0.9043 and 0.9304 and 1.026"}, {"measurement": "Normalized FL intensity", "setting": "ALP 20 U/L, 2 min, mean of 3 samples", "value": 1.245}, {"measurement": "Normalized FL intensity", "setting": "ALP 20 U/L, 2 min, single samples", "value": "1.222 and 1.235 and 1.278"}, {"measurement": "Normalized FL intensity", "setting": "ALP 20 U/L, 4 min, mean of 3 samples", "value": 1.522}, {"measurement": "Normalized FL intensity", "setting": "ALP 20 U/L, 4 min, single samples", "value": "1.443 and 1.5087 and 1.613"}, {"measurement": "Normalized FL intensity", "setting": "ALP 20 U/L, 6 min, mean of 3 samples", "value": 1.871}, {"measurement": "Normalized FL intensity", "setting": "ALP 20 U/L, 6 min, single samples", "value": "1.783 and 1.835 and 1.996"}, {"measurement": "Normalized FL intensity", "setting": "ALP 20 U/L, 8 min, mean of 3 samples", "value": 2.238}, {"measurement": "Normalized FL intensity", "setting": "ALP 20 U/L, 8 min, single samples", "value": "2.139 and 2.226 and 2.348"}, {"measurement": "Normalized FL intensity", "setting": "ALP 20 U/L, 18 min, mean of 3 samples", "value": 4.193}, {"measurement": "Normalized FL intensity", "setting": "ALP 20 U/L, 18 min, single samples", "value": "4.117 and 4.126 and 4.335"}, {"measurement": "Normalized FL intensity", "setting": "ALP 20 U/L, 20 min, mean of 3 samples", "value": 4.58}, {"measurement": "Normalized FL intensity", "setting": "ALP 20 U/L, 20 min, single samples", "value": "4.487 and 4.526 and 4.726"}, {"measurement": "Normalized FL intensity", "setting": "ALP 20 U/L, 22 min, mean of 3 samples", "value": 4.971}, {"measurement": "Normalized FL intensity", "setting": "ALP 20 U/L, 22 min, single samples", "value": "4.87 and 4.917 and 5.126"}, {"measurement": "Normalized FL intensity", "setting": "ALP 20 U/L, 24 min, mean of 3 samples", "value": 5.368}, {"measurement": "Normalized FL intensity", "setting": "ALP 20 U/L, 24 min, single samples", "value": "5.222 and 5.2913 and 5.5913"}, {"measurement": "Normalized FL intensity", "setting": "ALP 20 U/L, 26 min, mean of 3 samples", "value": 5.7}, {"measurement": "Normalized FL intensity", "setting": "ALP 20 U/L, 26 min, single samples", "value": "5.613 and 5.722 and 5.765"}, {"measurement": "Normalized FL intensity", "setting": "ALP 20 U/L, 28 min, mean of 3 samples", "value": 5.87}, {"measurement": "Normalized FL intensity", "setting": "ALP 20 U/L, 28 min, single samples", "value": "5.657 and 5.857 and 6.096"}, {"measurement": "Normalized FL intensity", "setting": "ALP 20 U/L, 30 min, mean of 3 samples", "value": 6.1913}, {"measurement": "Normalized FL intensity", "setting": "ALP 20 U/L, 30 min, single samples", "value": "6.039 and 6.078 and 6.457"}, {"measurement": "Normalized FL intensity", "setting": "ALP 50 U/L, 0 min, mean of 3 samples", "value": 0.942}, {"measurement": "Normalized FL intensity", "setting": "ALP 50 U/L, 0 min, single samples", "value": "0.9174 and 0.9652 and 0.9435"}, {"measurement": "Normalized FL intensity", "setting": "ALP 50 U/L, 2 min, mean of 3 samples", "value": 1.416}, {"measurement": "Normalized FL intensity", "setting": "ALP 50 U/L, 2 min, single samples", "value": "1.422 and 1.426 and 1.4"}, {"measurement": "Normalized FL intensity", "setting": "ALP 50 U/L, 4 min, mean of 3 samples", "value": 1.828}, {"measurement": "Normalized FL intensity", "setting": "ALP 50 U/L, 4 min, single samples", "value": "1.783 and 1.865 and 1.835"}, {"measurement": "Normalized FL intensity", "setting": "ALP 50 U/L, 6 min, mean of 3 samples", "value": 2.274}, {"measurement": "Normalized FL intensity", "setting": "ALP 50 U/L, 6 min, single samples", "value": "2.204 and 2.2913 and 2.326"}, {"measurement": "Normalized FL intensity", "setting": "ALP 50 U/L, 8 min, mean of 3 samples", "value": 2.743}, {"measurement": "Normalized FL intensity", "setting": "ALP 50 U/L, 8 min, single samples", "value": "2.687 and 2.713 and 2.83"}, {"measurement": "Normalized FL intensity", "setting": "ALP 50 U/L, 18 min, mean of 3 samples", "value": 5.301}, {"measurement": "Normalized FL intensity", "setting": "ALP 50 U/L, 18 min, single samples", "value": "4.857 and 5.3087 and 5.739"}, {"measurement": "Normalized FL intensity", "setting": "ALP 50 U/L, 20 min, mean of 3 samples", "value": 5.461}]}]}
